Patent publication US4883801A, “Xanthine derivative pest control agents” (priority 1986, dated 1989)
Some entries share one result that the patent states for a list of compounds.

Tested on: Manduca sexta (tobacco hornworm) larvae
Assay: Antifeeding test: tomato leaves sprayed with compound, tobacco hornworm larvae
Assay type: in vivo
Conditions: Table 1 grouping

| Structure (SMILES) | pesticidal and pestistatic activity class (active / inactive / weakly active) |
| --- | --- |
| Cn1c(=O)c2[nH]cnc2n(C)c1=O [Example 15, 1,3-dimethyl-xanthine (theophylline), reference compound] | active |
| Cn1c(=O)c2c(ncn2C)n(C)c1=O [Example 23, 1,3,7-trimethyl-xanthine (caffeine), reference compound] | active |
| Cn1c(=O)c2c(ncn2CCCl)n(C)c1=O [Example 24, 1,3-dimethyl,7-(2-chlorethyl)-xanthine] | active |
| O=c1[nH]c(=O)c2[nH]cnc2[nH]1 [Example 32, xanthine] | inactive |
| Cn1c(=O)[nH]c(=O)c2[nH]cnc21 [Example 34, 3-methyl-xanthine] | inactive |

Same assay, conditions: in vivo

| Structure (SMILES) | activity compared with caffeine |
| --- | --- |
| Cn1c(=O)c2c(ncn2CCCl)n(C)c1=O [Example 24, 1,3-dimethyl,7-(2-chlorethyl)-xanthine] | more active than caffeine |
